Laboratory results published in PubChem BioAssay AID2685 (National Center for Advancing Translational Sciences (NCATS), 2010).
Screen size: about 320,000 compounds; about 2,100 (0.66%) were called active. Inconclusive results, whose numbers are uncertain, are shown with a selection of clear calls. Calls come from the whole dose curve; as a rule, active = well fitted inhibition curve with a large enough effect in the signal ratio, with a control signal flat (not every such curve was filed as active); inconclusive = small, poorly fitted or top-dose-only effect, or effect the other way, or a change in a side signal; inactive = flat fitted curve, though single readings scatter; the % refers to the signal ratio. A potency beside an inconclusive call is a rough fit, not a confirmed value.

Test: qHTS Assay for Lipid Storage Modulators in Drosophila S3 Cells
Conditions: BODIPY lipid droplet fluorescence, 18-24 h, cells fed with added oleic acid; lipid storage change, negative = inhibition: at 46.1 µM (top of the series) unless noted
Outline: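 Laser-scanning cytometry quantifies lipid droplet accumulation (500–530 nm total intensity; droplet/cell object ratio) in oleic acid-fed (400 uM added) Drosophila S3 cells treated with a concentration series. 20 uM Triacsin C defined 100% inhibition.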
% is set by controls: 0 for no effect and ±100 for the full control effect; potency is the fitted concentration of half-maximal effect.

Lipid storage change, negative = inhibition, inconclusive:
Cc1ccc(S(=O)(=O)CCC(=O)NC2CCCCC2)cc1 -8.84%
COc1ccc(/C=C/C(=O)Nc2ccccc2C(N)=O)cc1S(=O)(=O)N1CCOCC1
CC(Sc1nnc(-c2ccncc2)n1C)C(=O)Nc1nccs1 (centres undefined) 71.1%
COc1cc(S(=O)(=O)Nc2ccccc2N2CCCCC2)ccc1NC(C)=O -29.5%
COc1cccc(/C=N/Nc2ccc(C(=O)O)cc2)c1O -8.2%
COc1ccccc1CNC(=O)Cn1cc2c(n1)CCCC2 20%
COc1ccc(C)cc1S(=O)(=O)N1CCCC(N2CCOCC2)C1 (centres undefined) 21.6%
CCCc1cc(C(=O)Nc2ccccc2SC)no1 34.2%
CCn1c(COc2ccc(C)cc2)nnc1SCC(=O)C(C)(C)C 32.8%
CC1CCC(NC(=O)C2CCC(CNc3c(N4CCCCC4)c(=O)c3=O)CC2)CC1 (centres undefined) -12.6%
CN(C)c1nc(NCc2ccccc2)nc(N/N=C/c2ccc3c(c2)OCO3)n1 26.1%
CCc1cccc(OCCCCN(CC)CC)c1 -10.3%
COc1ccc(NC(=O)C2CCN(C(=O)NCc3ccccc3)CC2)cc1 5.24%
CCCOC1CCCN(C(=O)c2cc(COc3c(F)cccc3F)on2)C1 (centres undefined) -16.1%
Cc1cc2c(SCC(=O)NC3CCCCC3)ncnc2s1 429%
COCCNC(=O)c1c(CSc2ccc(F)cc2)noc1C(=O)NCc1ccccc1 -48.6%
CCOC(=O)c1cc(-c2cccs2)nc2onc(C)c12 3.29%
COc1ccc(Oc2nc(C)cc(C)c2S(C)(=O)=O)cc1 -6.27%
Cc1cc[n+](C(C)C(=O)c2ccc(-c3ccccc3)cc2)cc1 (centres undefined) -36.5%
O=C(CN1CCCCCC1)Nc1cccc(Br)c1 9.8%
Cn1ccnc1SCC(=O)c1ccc(Br)cc1 34.5%
COc1cc(C(=O)Nc2ccc([N+](=O)[O-])cn2)cc(OC)c1OC 44%
CCOc1ccc(N(CC(=O)Nc2nccs2)S(=O)(=O)c2c(C)noc2C)cc1 -12.8%
Cc1cc(NC(=O)CSc2nc3c(cc2C#N)CCCCC3)no1 -23.2%
COc1ccc(NC(=O)CN(c2ccc(Cl)cc2)S(C)(=O)=O)cc1OC -18.4%
Cc1ccc(NC2c3ncccc3C(=O)N2c2ccccc2C)cc1C (centres undefined) -20.9%
CCOC(=O)C1CCCN(C(=O)c2ccc(NC(=O)CC3SC(N4CCCC4)=NC3=O)cc2)C1 (centres undefined)
CCN(CC)S(=O)(=O)c1cccc(C(=O)NCC2(N3CCOCC3)CCCCC2)c1
Cn1c(=O)n(C)c2cc(NS(=O)(=O)c3ccc(F)cc3)ccc21 8.7%
COc1ccc(C(=O)Nc2ccc(-c3ccc(C)o3)cc2)cc1S(=O)(=O)N1CCOCC1 74.9%
COc1cccc(-n2c(SCC#N)nnc2-c2cnccn2)c1 -7.5%
O=C(Nc1ccc(NC(=O)c2ccco2)cc1)c1ccc2c(c1)OCCO2 -6.05%
CCC(C)(C)n1nnnc1C(c1ccc(F)cc1)N1CCN(C(=O)c2ccco2)CC1 (centres undefined) -54.6%
Cc1nn(Cc2ccccc2)c(C)c1NC(=O)CSc1nc(-c2ccccc2)nc2c1cnn2-c1ccccc1 22.2%
O=C(NN1C(=O)c2ccccc2C1=O)c1ccc2c(c1)C(=O)N(CC1CCCO1)C2=O (centres undefined) -10.6%
COc1ccc(-c2nc(N)n(S(=O)(=O)c3ccc(C)cc3)n2)cc1 -12.4%
CC1CCC(CN2C(Nc3ccccc3)=NC[C@@H]2C)CC1 (some centres undefined) 9.73%
COc1cc(NC(=O)c2ccc(CNc3c(N4CCOCC4)c(=O)c3=O)cc2)cc(OC)c1 -0.824%
CCN(CC(=O)Nc1ccc(NC(C)=O)cc1)C(=O)C1CCCN(C(=O)c2ccc(Cl)cc2)C1 (centres undefined) 117%
CCOC(=O)c1cnc(-c2ccccc2)nc1Oc1ccc(Cl)cc1 -0.705%
COc1ccc(CCCNC(=O)C2CCC(=O)N(CC3CCCCC3)C2)cc1 (centres undefined) -19.1%
O=C(O)CC1SC(=Nc2cccc(O)c2)NC1=O (centres undefined) -5.54%
Cc1ccc(S(=O)(=O)NC(=O)Nc2cc(C)ccc2F)cc1 76%
CCCCCCCNC(=O)C1(CC2CC(c3ccc(Cl)cc3)=NO2)CCN(C(=O)C2CCCC2)CC1 (centres undefined) -91.6%
COc1cc(NS(=O)(=O)c2ccc(NC(=O)CSC3=NCCS3)cc2)nc(OC)n1 -3.15%
Cc1ccc(S(=O)(=O)NCC2CCC(C(=O)N3CCN(C)CC3)CC2)cc1 (centres undefined) 6.08%
COc1ccc(OC)c(S(=O)(=O)N2CCCC(C(=O)NCc3ccccn3)C2)c1 (centres undefined) 52.7%
C[n+]1ccc(C(=O)NCc2ccccc2)cc1 21.3%
CCCCCC(=O)NC(=S)Nc1ccc2oc(=O)ccc2c1 24.3%
Cn1nc(-c2ccc(Cl)cc2)c2cc(C(=O)N3CCCC3)sc21 10.5% [at 9.22 µM]
CC(OC(=O)Cn1[nH]c(=O)c2ccccc2c1=O)C(=O)Nc1ccc(F)cc1Cl (centres undefined)
COc1ccc(-c2nc(C)sc2CC(=O)O)cc1OC -66.5%
O=C(CN1CCN(CC(=O)Nc2ccccc2F)CC1)Nc1ccc2c(c1)OCCO2 -15.2%
O=C(Nc1ccccc1C(=O)NCc1ccccc1)c1ccccc1 -20.2%

A section from the list above, as a working copy:
Lipid storage change, negative = inhibition, inconclusive:
COc1ccc(C(=O)Nc2ccc(-c3ccc(C)o3)cc2)cc1S(=O)(=O)N1CCOCC1 74.9%
COc1cccc(-n2c(SCC#N)nnc2-c2cnccn2)c1 -7.5%
O=C(Nc1ccc(NC(=O)c2ccco2)cc1)c1ccc2c(c1)OCCO2 -6.05%
CCC(C)(C)n1nnnc1C(c1ccc(F)cc1)N1CCN(C(=O)c2ccco2)CC1 (centres undefined) -54.6%

Next part:

Lipid storage change, negative = inhibition, inactive:
Cc1c2ccccc2nc2c(F)c(NCCO)c(F)c(F)c12 -22.8%
CCC(CC)C(=O)NCCc1ccc(S(N)(=O)=O)cc1 0.195%
COc1ccc(S(=O)(=O)N(CC(=O)NCCC(C)C)c2ccccc2)cc1OC -27.8%

Potency, inconclusive:
CC1CCCC(C)N1CCNC(=O)CCc1nnc2n(Cc3ccccc3)c(=O)c3ccccc3n12 (centres undefined) 8.2 µM [falling, partial curve, poor fit]
COC(=O)CNC(=O)c1ccccc1F 0.58 µM [falling, single point]
COc1cccc(/C=N/n2c(C3CCCCC3)n[nH]c2=S)c1OC 29.1 µM [falling, single point]
C=CCOc1ccccc1CN1CCC(C(=O)Nc2cccc(-c3ccn[nH]3)c2)CC1 23.1 µM [activator, partial curve, poor fit]
COc1cc(CNC(C)c2ccccc2)cc(Br)c1OCc1ccc(F)cc1 (centres undefined) 29.1 µM [falling, single point]
O=C(NCCCN1CCCC1=O)c1cccc(C(F)(F)F)c1 25.9 µM [falling, single point]
COc1cc(SC)ccc1C(=O)Nc1ccc2c(c1)CCC2 1.46 µM [falling, partial curve]
CC(C)(C)c1ccc(/C=C/C(=O)Nc2ncccn2)cc1 3.66 µM [falling, partial curve]
CC1=NN(C(=O)c2ccc(C)o2)C(O)(c2ccccc2)C1 (centres undefined) 2.59 µM [rising, single point]
CN1C(=O)/C(=C/c2ccccc2OCc2ccccc2F)NC1=S 10.3 µM [falling, partial curve, poor fit]
CCO/C(C)=N/n1c2nc3ccccc3nc2c2c(=O)n(Cc3ccccc3Cl)c(C)nc21 0.13 µM [activator, full curve]
CCOc1ccc(NC(=S)N2CCN(S(=O)(=O)c3ccc(OC)cc3)CC2)cc1 11.6 µM [activator, partial curve]
Cc1nn(-c2ccccc2)c(N2CCCC2)c1/C=N/n1cnc2scc(-c3ccccc3)c2c1=O 0.731 µM [rising, full curve]
COc1ccc(S(=O)(=O)N2CCCCCC2)cc1C(=O)NCc1ccc(C)cc1 9.2 µM [falling, partial curve, poor fit]
O=C(O)c1ccc(Cl)c(NCc2ccncc2)c1 4.61 µM [activator, partial curve]
COc1ccc2cc(C(=O)Nc3ccc(F)cc3)sc(=O)c2c1OC 1.64 µM [falling, full curve, poor fit]
CCn1c(C)nc2cc(C(=O)N/N=C(\C)c3ccc(OC)cc3O)ccc21 0.731 µM [activator, full curve]
COc1ccc(C)cc1S(=O)(=O)NCc1cccs1 0.116 µM [activator, single point]
C=CCc1cccc2cc(C(=O)NC)c(=O)oc12 0.259 µM [activator, full curve, poor fit]
CCOC(=O)C1(CC2CC2)CCN(C(=O)c2cc(OC)nc3ccccc23)CC1 2.06 µM [falling, partial curve, poor fit]

Potency, active:
Cc1ccnc2nc(C(=O)Nc3nc(-c4ccccn4)cs3)nn12 1.64 µM
CCN(CC)c1ccc(/C=N/NC(=O)C(O)(c2ccccc2)c2ccccc2)o1 20.6 µM
